Some of the results follow.
What follows are sequences tested against OsWRKY34 (Oryza sativa, UniProt Q0JBA9 1-250) (assay: protein-binding microarray (RPBM); PBS, 2% BSA, 51.3 ng/ul salmon testes DNA, 50 uM zinc acetate, 200 nM TF, 25 C, 1 h; high values mean tight binding). Details: protein: recombinant; tags: N-terminal polyhistidine and DsRed monomer fusion (pET32a); label: CyDye5-dUTP incorporated in the synthesized complementary strand; 3' TTTTT single-stranded linker to array surface; dsDNA, one strand shown.
Summary of the method: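 Transcription factors were made in E. coli BL21-CodonPlus as N-terminal fusions to a polyhistidine tag and DsRed, then purified on Ni–NTA. After primer extension with Cy5-dUTP and blocking with 2% BSA, a custom Agilent array was exposed for 1 h at 25 °C to 200 nM protein in PBS, 2% BSA, salmon testes DNA and 50 µM zinc acetate. Washed arrays were scanned on an Axon 4000B, and the binding signal is per-feature fluorescence intensity in arbitrary units.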

Chains of the proteins cited; added tags and fusions are not shown.
UniProt Q0JBA9, entry or part of it: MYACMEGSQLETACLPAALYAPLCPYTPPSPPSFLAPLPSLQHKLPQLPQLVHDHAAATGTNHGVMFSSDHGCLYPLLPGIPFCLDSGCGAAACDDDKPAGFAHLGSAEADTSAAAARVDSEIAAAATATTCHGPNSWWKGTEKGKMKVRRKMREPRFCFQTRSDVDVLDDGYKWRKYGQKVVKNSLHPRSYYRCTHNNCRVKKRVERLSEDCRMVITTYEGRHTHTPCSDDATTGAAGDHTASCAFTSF

Sequence | binding signal
TGATTATCGTTATTGACCTCCTTTTGGTCTCGCGCCCACTCGGAGTCACCTAGTGCAG | 9810 fluorescence intensity (a.u.)
AGCCCATCTCGGACATATCTCCGGCCTACTTAGCCCATCACGGAGTCACCTAGTGCAG | 9050 fluorescence intensity (a.u.)
TCTTTCGGTGTCCTATAGCAAATTTTGCCATGTATGAATTCGGAGTCACCTAGTGCAG | 8680 fluorescence intensity (a.u.)
AAACCAGCGACACGTTCCTGTCTTCCTCATATTTACTAAACGGAGTCACCTAGTGCAG | 8540 fluorescence intensity (a.u.)
TGATCTCCGTCCACCTGCCGGCCTGGGCGCACACCGCGCCCGGAGTCACCTAGTGCAG | 11400 fluorescence intensity (a.u.)
TGTTTGGTGCACCTTTTTTTTCAAACCTTGTAATTTTGGACGGAGTCACCTAGTGCAG | 8950 fluorescence intensity (a.u.)
TGCTCTTACGGTCATTCCTTTTCCGTAGCATTGGCCCAAACGGAGTCACCTAGTGCAG | 8060 fluorescence intensity (a.u.)
TCCCTCCAGGACATTTTTTTTCTTTAAGCTAGCTTATGGACGGAGTCACCTAGTGCAG | 9190 fluorescence intensity (a.u.)
TCATTTAAATTTCTTCCTATTTTATCCTCAACTACCATTTCGGAGTCACCTAGTGCAG | 9010 fluorescence intensity (a.u.)
AACACCACCACTGATCATCACTAGCTTTCTACTTGTAGAACGGAGTCACCTAGTGCAG | 12400 fluorescence intensity (a.u.)
GCCAAAGTTTCACCCGTTCATACACTTATCCCATATAAAACGGAGTCACCTAGTGCAG | 8200 fluorescence intensity (a.u.)
CTCCCCATCAGTCGCCGCGCCACCGCCCCATCGATCTCCGCGGAGTCACCTAGTGCAG | 12400 fluorescence intensity (a.u.)
GACGTTTGATGTCGCGGTTCCGGTATTTACATAGTATGGGCGGAGTCACCTAGTGCAG | 9810 fluorescence intensity (a.u.)
CAATCCGGTCATTTCACATCAGCATCCGTGTACAGATATTCGGAGTCACCTAGTGCAG | 10300 fluorescence intensity (a.u.)
CACCAATTCCGTCTTTCCTCTGCGTGCAAATTCCGTCTTCCGGAGTCACCTAGTGCAG | 8740 fluorescence intensity (a.u.)
GGGTTCTTATATGGAAACTTCTTTCAATATTGCTTATTTTCGGAGTCACCTAGTGCAG | 8300 fluorescence intensity (a.u.)
AAGTAGAGTGGACATTTCTTTTTTTCCTTTTCAATCTTCCCGGAGTCACCTAGTGCAG | 8890 fluorescence intensity (a.u.)
ATTCTCTATATATTCAACTGTTGGGCCGTCCACTACATCTCGGAGTCACCTAGTGCAG | 8370 fluorescence intensity (a.u.)
TCCAGACACACATAGCCACTCCGTCACAATTTCGGCGTCGCGGAGTCACCTAGTGCAG | 11000 fluorescence intensity (a.u.)
TTTCTCAACTCGATCCATCTCTCTCTCTCTCTCGATCTCTCGGAGTCACCTAGTGCAG | 10500 fluorescence intensity (a.u.)
TGTAACTACAACCGCTGTGTTTTTTTCACATAATATCTTTCGGAGTCACCTAGTGCAG | 10900 fluorescence intensity (a.u.)

Sequence | binding signal
CGCTTCTGCCACGTCGCTCTCCCCGATGCGTTCTTATCCCCGGAGTCACCTAGTGCAG | 8060 fluorescence intensity (a.u.)
CCATCCCATCACTTGCTTCCCTTGCAAACGCAACCAACAACGGAGTCACCTAGTGCAG | 8600 fluorescence intensity (a.u.)
AATTACTATATGTATATTTACAGTTAAATTTGTTATTTTTCGGAGTCACCTAGTGCAG | 9040 fluorescence intensity (a.u.)
TGTGTGTATGATAAATGGGTCCCGCTTGTATTTTTTTTATCGGAGTCACCTAGTGCAG | 13500 fluorescence intensity (a.u.)
GCCTGTTCTTCAATTTGCCGCCGGCGCCGGCTTCGGCTTGCGGAGTCACCTAGTGCAG | 8110 fluorescence intensity (a.u.)
CCACTGCGCCACCGTCTCCTTCCCGCACCACGCGCGCGCCCGGAGTCACCTAGTGCAG | 8390 fluorescence intensity (a.u.)
GCAAATCTCAACATAGGCTAGCTTCTTAGTGCACTTGCTTCGGAGTCACCTAGTGCAG | 9760 fluorescence intensity (a.u.)
CACCCACCAAGTACTCTTTTTACTTTTACCACAGCGCATACGGAGTCACCTAGTGCAG | 9050 fluorescence intensity (a.u.)
GTTTCAATTATTTGACATCCAACCCCACTTTTATTCACTTCGGAGTCACCTAGTGCAG | 10400 fluorescence intensity (a.u.)
CGAAATGTTTGACGTCGTTGACTTTTTAGCACATGTTTAACGGAGTCACCTAGTGCAG | 22800 fluorescence intensity (a.u.)
TCCCAACACCTCTCCATCGTTTTCCGCGTGTACGCTTTTCCGGAGTCACCTAGTGCAG | 11500 fluorescence intensity (a.u.)
GCCGTTGACTTTTTATCCAACGTTTGATCATTCGTCTTATCGGAGTCACCTAGTGCAG | 40800 fluorescence intensity (a.u.)
CAAAATCCTTTTTCTTTTTTTCATTTTTTCTGTGCTTTTTCGGAGTCACCTAGTGCAG | 8680 fluorescence intensity (a.u.)
TCCGCGACGCCGTCTCCTGGAACTCGCTCATCGCCGCCTCCGGAGTCACCTAGTGCAG | 10000 fluorescence intensity (a.u.)
CTCCATGGCACTCACCTCACCACACACCACTCCACCATCACGGAGTCACCTAGTGCAG | 8450 fluorescence intensity (a.u.)
GTGGCGTCAAAGTATTGAGGGCGGGGATGCGGCCACCGTACGGAGTCACCTAGTGCAG | 8640 fluorescence intensity (a.u.)
ACTTCTTCATTTTAAACCCTCTTTTCGTTTAATTAACGTGCGGAGTCACCTAGTGCAG | 8880 fluorescence intensity (a.u.)
AGATCCAACGGCGGAGACCACCGCCGCCCCGTTCCGATCGCGGAGTCACCTAGTGCAG | 10100 fluorescence intensity (a.u.)
AGTCTAAAGTCTTTTCAACCTCCCTAGCTCGCTCGCATGCCGGAGTCACCTAGTGCAG | 9010 fluorescence intensity (a.u.)
AACCTCTCATTTAATAAGATTCATCACAGTCTTTTTTTTTCGGAGTCACCTAGTGCAG | 9990 fluorescence intensity (a.u.)
GCCCGCGCAGATCCGCGCGGTTCTTTTTTTGTGGGGAGAGCGGAGTCACCTAGTGCAG | 8850 fluorescence intensity (a.u.)

Quoted at random: 3 entries already listed, in no set order.
Sequence | binding signal
CCATCCCATCACTTGCTTCCCTTGCAAACGCAACCAACAACGGAGTCACCTAGTGCAG | 8600 fluorescence intensity (a.u.)
GCCGTTGACTTTTTATCCAACGTTTGATCATTCGTCTTATCGGAGTCACCTAGTGCAG | 40800 fluorescence intensity (a.u.)
CCACTGCGCCACCGTCTCCTTCCCGCACCACGCGCGCGCCCGGAGTCACCTAGTGCAG | 8390 fluorescence intensity (a.u.)
